Test results reported in publication PMC10382596.

Target: ORF4 (Se locus, from indica-derived NIL E9) (Oryza sativa ssp. indica (E9))
Experiment: two-hybrid; yeast two-hybrid system; bait and prey not told

B1: ORF3 (Se locus, from indica-derived NIL E9) (protein, UniProt Q9SSW3 1-298)
chain: MAEEKESFEGQWAPSNVTEENLKEMVAHGVLPAKEIIGWRPACGEAFPSPDTHEVVVFSHFFYGGFALPTSKFFRGILNFYGISLHHLNPNSIVHIANFIHVCEAFLGIKPHFALFRRIFFLKPQPNKSKPCVVGGAGFQLRGTLSQKYFSMPFKTSNKGWHANWFYIQNPEPALPEYSCLPPVYQDTWNSLPIGDEAAQALELMDRMLKLKEQGLQGEQITRHFIKCRLAPIKERSRTAFEFDGKHDPNREEPDSLDFKIMKERMYKIFSNAIVVSYSHQLPVVPYNAFNPPPQVCI
  binding: no binding

No constants are given. Whether binding was seen depends on the method and setting.
